According to PubChem BioAssay AID493014 (National Center for Advancing Translational Sciences (NCATS), 2011):
About 170 (0.05%) of roughly 340,000 compounds were called active. This list was built around the results that the source calls inconclusive (neither active nor inactive); the mix of calls is not that of the screen. Calls follow the shape of the dose curve; as a rule, active = well fitted inhibition curve with a large enough effect in the signal ratio, with a control signal flat (not every such curve was filed as active); inconclusive = small, poorly fitted or top-dose-only effect, or effect the other way, or a change in a side signal; inactive = flat fitted curve, though single readings scatter; the % refers to the signal ratio. A potency beside an inconclusive call is a rough fit, not a confirmed value.

Assay: qHTS Assay to Find Inhibitors of Chronic Active B-Cell Receptor Signaling;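 as to activity change, negative = inhibition: plate controls were basal doxycycline-induced cells for no effect and cells given 10 µM MG132 for full effect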
Details: ABC-DLBCL IkBa-CBG/CBR reporter, luminescence ratio (green luciferase fused to IkBa over red control in TMD8 lymphoma cells), 4 h; activity change, negative = inhibition: at 46.1 µM (top of the series)
Procedure, shortened: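 TMD8 human ABC-DLBCL cells with doxycycline-inducible IκBα–green luciferase fusion and unfused red luciferase, in 0.5% FBS medium; compounds up to 46 uM, 4 h at 37C. Green/red luminescence ratio, filter-overlap corrected, fitted to concentration-response curves.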
Potency is read from the fitted curve at half-maximal effect.

Q: Which Potency does the source give for `COc1ccc(-c2cc3nc(CCl)[nH]c(=O)c3s2)cc1` here?
A: The Potency was inconclusive: 28.2 µM [falling, partial curve].

Q: For `COc1cccc(-n2c(SCC(=O)OC(C)C)nnc2-c2cccnc2)c1`, which activity change, negative = inhibition is on record?
A: Its activity change, negative = inhibition is inconclusive: 11.7%.

Q: With `COC1=C(Nc2ccc(O)cc2)C(=O)c2ccccc2C1=O` as the compound, how does the “activity change, negative = inhibition” value read?
A: Its value is inactive: -5.75%.

Q: With `Cc1ccc(-n2cc(CNC(C)Cn3cncn3)c(-c3ccc(F)cc3)n2)cc1` (centres undefined) as the compound, how does the Potency read?
A: Its Potency is inconclusive: 10 µM [falling, partial curve].

Q: With `CNC(C)C(=O)NC(C(=O)N1CCCC1C(=O)NNc1ccccc1)C(C)C` (centres undefined) as the compound, how does the activity change, negative = inhibition read?
A: Its activity change, negative = inhibition is inconclusive: 11.5%.

Q: With `Cc1cc2oc(=O)cc(CN3CCN(Cc4ccccc4)CC3)c2cc1O` as the compound, how does the Potency read?
A: Its Potency is inconclusive: 7.94 µM [falling, partial curve, poor fit].

Q: With `O=C(O)c1cccc(N/N=C/c2cccnc2)c1` as the compound, how does the Potency read?
A: The Potency was inconclusive: 5.62 µM [rising, single point].

Q: Which “activity change, negative = inhibition” value does the source give for `C=CCn1cc(CN2CCC(C(=O)Nc3cccc(-c4cccc(F)c4)c3)CC2)c(C)n1` here?
A: The value was inactive: 0.394%.

Q: With `Cc1[nH]c2ccccc2c1C(=O)COC(=O)c1nccnc1N` as the compound, how does the Potency read?
A: Its Potency is inconclusive: 16.4 µM [falling, partial curve].

Q: With `Cc1ccc(NC(=O)CCNS(=O)(=O)c2cccc3nsnc23)cc1F` as the compound, how does the “activity change, negative = inhibition” value read?
A: The value was inactive: 14.4%.

Q: Which activity change, negative = inhibition does the source give for `Cc1ccc(S(=O)(=O)CCC(=O)N2CCN(c3ccc([N+](=O)[O-])cc3)CC2)cc1` here?
A: Its activity change, negative = inhibition is inconclusive: -0.419%.

Q: Which activity change, negative = inhibition does the source give for `COc1cc(C2C(C#N)=C(N)Oc3c2c(-c2ccccc2)nn3-c2ccccc2)cc(OC)c1OC` (centres undefined) here?
A: Its activity change, negative = inhibition is inconclusive: -4.67%.

Q: With `O=C(Nc1ccccn1)c1cc2cc([N+](=O)[O-])ccc2s1` as the compound, how does the Potency read?
A: Its Potency is inconclusive: 2.82 µM [falling, full curve, poor fit].

Q: With `O=C(CCN1C(=O)c2ccccc2S1(=O)=O)Nc1ccc(F)c([N+](=O)[O-])c1` as the compound, how does the “activity change, negative = inhibition” value read?
A: The value was inactive: 1.45%.

Q: Which Potency does the source give for `CN1CCC/C1=C1/C(=O)N(c2ccccc2)N=C1NC(=O)Nc1cccc(Cl)c1` here?
A: Its Potency is inconclusive: 2.82 µM [falling, full curve].

Q: Which activity change, negative = inhibition does the source give for `Cc1ccc(-c2nc3ccccc3c(=O)n2-c2c(C)n(C)n(-c3ccccc3)c2=O)cc1` here?
A: Its activity change, negative = inhibition is inconclusive: 7.57%.

Q: For `c1ccc(-n2nnnc2-n2ccnc2)cc1`, which “activity change, negative = inhibition” value is on record?
A: Its value is inactive: 12.5%.

Q: Which activity change, negative = inhibition does the source give for `N/C(=N\OC(=O)c1cnn(-c2ccccc2)c1C(F)(F)F)c1cc(C(F)(F)F)cc(C(F)(F)F)c1` here?
A: The activity change, negative = inhibition was inconclusive: 11.3%.

Q: Which activity change, negative = inhibition does the source give for `Cc1ccc(/C(C#N)=C\c2cn(C)c3ccccc23)cc1` here?
A: Its activity change, negative = inhibition is inconclusive: 6.07%.

Q: With `Cc1ccc(NC(=O)c2ccc([N+](=O)[O-])o2)cc1S(=O)(=O)N1CCOCC1` as the compound, how does the Potency read?
A: Its Potency is inconclusive: 12.6 µM [falling, partial curve, poor fit].

Q: For `O=C(NCc1cccc(F)c1)c1cccc2c1C(=O)c1ccc(N3CCCC3)cc1S2(=O)=O`, which activity change, negative = inhibition is on record?
A: Its activity change, negative = inhibition is inconclusive: -1.87%.

Q: For `CCCCn1c(SCC(=O)N2CCN(c3ccccc3)CC2)nc2ccsc2c1=O`, which activity change, negative = inhibition is on record?
A: The activity change, negative = inhibition was inconclusive: 7.93%.

Q: For `O=C1CSC(=S)N1Cc1cccnc1`, which Potency is on record?
A: The Potency was inconclusive: 29.1 µM [falling, single point].

Q: Which Potency does the source give for `CCOC(=O)C1=C(C)N=C2SC(C)C(=O)N2C1c1cccc(F)c1` (centres undefined) here?
A: The Potency was inconclusive: 3.66 µM [rising, partial curve].

Q: Which Potency does the source give for `COC(=O)c1[nH]c2c(c1C)C(=O)CC(c1ccccc1)C2` (centres undefined) here?
A: The Potency was inconclusive: 1.46 µM [falling, partial curve, poor fit].

Q: For `NS(=O)(=O)c1cccnc1Nc1c(Cl)cccc1Cl`, which Potency is on record?
A: Its Potency is inconclusive: 16.4 µM [falling, single point].

Q: For `Cc1cccc(-c2nn(-c3ccccc3)cc2C(=O)N(C)CC(=O)Nc2ccc(N3CCOCC3)cc2)c1`, which activity change, negative = inhibition is on record?
A: The activity change, negative = inhibition was inconclusive: 16.7%.

Q: With `O=C(CNC(=O)c1cccs1)NCC(=O)OCc1c(Cl)cccc1Cl` as the compound, how does the activity change, negative = inhibition read?
A: Its activity change, negative = inhibition is inconclusive: -0.895%.

Q: With `Cc1cc2oc(=O)c3c(c2cc1OCc1nn[nH]n1)CCCC3` as the compound, how does the “activity change, negative = inhibition” value read?
A: Its value is inactive: 5.25%.

Q: Which activity change, negative = inhibition does the source give for `O=C(O)c1ccc(NS(=O)(=O)c2ccc3c(c2)C(=O)c2cc(S(=O)(=O)Nc4ccc(C(=O)O)cc4)ccc2-3)cc1` here?
A: Its activity change, negative = inhibition is inconclusive: -3.69%.

Q: With `O=C(NC(Cc1ccccc1)C(=O)O)c1ccco1` (centres undefined) as the compound, how does the activity change, negative = inhibition read?
A: Its activity change, negative = inhibition is inconclusive: 1.15%.

Q: For `CCOC(=O)CSc1nc2c(sc3ccccc32)c(=O)n1Cc1ccc(OC)cc1`, which Potency is on record?
A: The Potency was inconclusive: 35.5 µM [falling, single point].

Q: Which activity change, negative = inhibition does the source give for `Cc1ccc(CSCC(=O)Nc2ccccc2)cc1` here?
A: The activity change, negative = inhibition was inconclusive: -1.33%.

Q: For `CCOc1cnc(-c2c(-c3c(F)cccc3Cl)noc2C)o1`, which activity change, negative = inhibition is on record?
A: Its activity change, negative = inhibition is inconclusive: 0.0962%.

Q: With `CCOC(=O)[C@H]1[C@H]2COc3cc(OC)ccc3[C@@H]2N2C(=O)c3cc(OC)ccc3NC(=O)[C@@]12C` as the compound, how does the activity change, negative = inhibition read?
A: Its activity change, negative = inhibition is inconclusive: -0.987%.

Q: For `CC1CCCN(CCC(=O)Nc2ccc(F)c(F)c2)C1` (centres undefined), which “activity change, negative = inhibition” value is on record?
A: The value was inactive: -12.1%.

Q: Which Potency does the source give for `COc1ccc(OCc2cccc(C(=O)N3CCCC3)c2)cc1` here?
A: The Potency was inconclusive: 29.1 µM [falling, single point].

Q: Which “activity change, negative = inhibition” value does the source give for `NC(=O)c1cc(-c2csc(NCCc3ccccc3)n2)ccc1O` here?
A: Its value is inactive: 15.4%.

Q: For `COc1ccc(OCCNC(=O)c2ccccc2OCC(=O)Nc2ccc(NC(C)=O)cc2)cc1`, which activity change, negative = inhibition is on record?
A: The activity change, negative = inhibition was inconclusive: -5.59%.

Q: For `Nc1c(C(=O)c2ccccc2)sc(Nc2ccc(Cl)c(Cl)c2)c1C(=O)Nc1ccccc1`, which activity change, negative = inhibition is on record?
A: Its activity change, negative = inhibition is inconclusive: -5.72%.

Q: Which Potency does the source give for `CC(C)NC(=O)c1c(O)c2ccccc2[nH]c1=O` here?
A: Its Potency is inconclusive: 1.46 µM [rising, partial curve, poor fit].

Q: For `Cn1c(=O)c2cc(S(=O)(=O)NC(Cc3ccccc3)C(=O)NCC3CCCO3)ccc2n(C)c1=O` (centres undefined), which “activity change, negative = inhibition” value is on record?
A: Its value is inactive: 5.66%.

Q: For `C=CCNC(=S)/N=c1/scc(C)n1C`, which activity change, negative = inhibition is on record?
A: The activity change, negative = inhibition was inconclusive: 3.27%.

Q: For `Cc1c(CN2CCC(CO)(Cc3cccc(C(F)(F)F)c3)CC2)c2ccccc2n1C`, which activity change, negative = inhibition is on record?
A: Its activity change, negative = inhibition is inconclusive: -11.3%.

Q: Which activity change, negative = inhibition does the source give for `O=C(CNS(=O)(=O)c1cccc(Cl)c1)Nc1ccc(-c2nc3ccccc3s2)cc1` here?
A: Its activity change, negative = inhibition is inconclusive: 7.76%.

Q: With `CCCNc1nc2c(c(=O)n(C)c(=O)n2C)n1CCCc1ccccc1` as the compound, how does the “activity change, negative = inhibition” value read?
A: Its value is inactive: 0.327%.

Q: With `O=C(Cc1cccs1)Nc1nnc(SCc2ccc(C(F)(F)F)cc2)s1` as the compound, how does the activity change, negative = inhibition read?
A: Its activity change, negative = inhibition is inconclusive: 16.1%.

Q: With `CNC(=O)CSc1cn(CC(=O)N(C(C)C)C(C)C)c2ccccc12` as the compound, how does the activity change, negative = inhibition read?
A: Its activity change, negative = inhibition is inconclusive: -0.0024%.

Q: For `COc1cc(S(=O)(=O)N2CCN(c3ccccc3)CC2)ccc1F`, which activity change, negative = inhibition is on record?
A: The activity change, negative = inhibition was inconclusive: 1.56%.
